# Over roughly 33,000 sequences, “E-score (-0.5 to 0.5)” has its median near -0.016; the highest 2% begin near 0.3. Some of the results follow.
# Target: T1, Yer184c (UniProt P39961)
# T1 sequence: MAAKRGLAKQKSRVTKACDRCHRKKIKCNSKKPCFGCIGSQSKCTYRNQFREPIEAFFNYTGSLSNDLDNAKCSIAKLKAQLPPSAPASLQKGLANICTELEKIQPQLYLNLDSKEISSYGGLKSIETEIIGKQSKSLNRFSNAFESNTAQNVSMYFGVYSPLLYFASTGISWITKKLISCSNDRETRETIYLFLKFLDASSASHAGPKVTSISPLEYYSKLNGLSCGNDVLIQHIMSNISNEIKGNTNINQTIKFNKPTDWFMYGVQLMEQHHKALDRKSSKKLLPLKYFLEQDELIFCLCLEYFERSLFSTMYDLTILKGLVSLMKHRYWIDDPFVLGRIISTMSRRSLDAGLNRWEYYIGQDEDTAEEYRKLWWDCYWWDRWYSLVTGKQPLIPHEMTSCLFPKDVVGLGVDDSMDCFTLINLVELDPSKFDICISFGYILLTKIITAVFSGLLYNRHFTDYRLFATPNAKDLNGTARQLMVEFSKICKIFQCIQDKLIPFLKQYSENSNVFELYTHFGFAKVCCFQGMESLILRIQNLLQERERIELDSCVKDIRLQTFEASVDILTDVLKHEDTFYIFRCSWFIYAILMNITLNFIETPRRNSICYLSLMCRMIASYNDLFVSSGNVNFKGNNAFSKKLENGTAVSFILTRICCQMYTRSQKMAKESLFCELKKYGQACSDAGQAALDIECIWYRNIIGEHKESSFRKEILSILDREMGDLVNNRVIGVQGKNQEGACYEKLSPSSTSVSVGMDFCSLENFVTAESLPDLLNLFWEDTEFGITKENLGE
# Assay: PBM E-score (8-mer binding enrichment) (E-score (-0.5 to 0.5)); higher = stronger / more preferred TF binding
# Conditions: protein concentration: 100 nM; construct: GST-full length
# Procedure, shortened: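 The E-score, a modified Wilcoxon-Mann-Whitney statistic, was computed by the Universal PBM Analysis Suite for every ungapped eight-base word pooled with its reverse complement. Scans behind it were normalised with masliner after bound GST-tagged yeast transcription factors were detected with fluorescent anti-GST. The proteins, at about 100-200 nM, had been applied to universal all-10-mer Agilent arrays made double-stranded by primer extension.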
row,Sequence,PBM E-score
1,ACTTTGTG,0.0135
2,GTTACATA,0.00737
3,ACCAAATA,0.163
4,CGCCACGA,-0.138
5,GCCTGCAC,-0.19
6,ACGCGGGA,0.0964
7,AGTCGCTC,-0.133
8,CAGCATTC,-0.0585
9,ATCTGAAC,0.0885
10,ACTTCTGG,-0.132
11,CGATGCTA,0.084
12,CATGACAC,-0.00895
13,CCAACATA,0.163
14,CAAGTCTG,-0.185
15,CCCTAAGC,-0.298
16,CAGGGTGA,-0.199
17,CGTGCGCA,-0.0749
18,CCCCTACC,-0.269
19,ACAAAAAG,0.135
20,GAAGTAGA,0.15
21,ACAAGCAT,-0.052
22,ATGCTGAC,0.0304

row,Sequence,PBM E-score
1,TCACTGCA,0.164
2,TAAACGGA,0.311
3,CGATGCTC,-0.035
4,AGCCACAG,-0.246
5,CGTTATGC,-0.0962
6,CTTACTGA,-0.0008
7,ATCTACAC,0.0957
8,CCCGATAG,-0.177
9,ACTTTGTA,0.0737
10,CGGCCTAC,0.114
11,CAATTCCA,-0.0791
12,CATTGAAG,-0.102
13,TTAGCGAA,-0.0211
14,CGGCTCGC,0.207
15,CAGCAAAC,0.105
16,CCCTACTA,-0.0259
17,GATATGTA,0.0416
18,CGATACGA,-0.0823
19,ACTTTTAT,0.0269
20,TGGGTACA,-0.0284
21,TAGCGTGA,-0.119
22,AATAAGAT,0.102

row,Sequence,PBM E-score
1,ATCATTTG,0.078
2,GGGTAATA,0.0677
3,CTGAATTA,0.0697
4,CTGCTAGC,-0.168
5,AAATTACT,0.196
6,AGCGCAAT,0.00082
7,ACTAGGAC,-0.0895
8,AACTCTGA,0.262
9,AGATCTTG,-0.0102
10,AACCAGAA,0.0367
11,GAAAGTGA,0.0574
12,CCGACCAC,0.015
13,CAGAAAGC,0.00441
14,AAGTCCGT,0.149
15,GGTTTAAA,0.141
16,ACGTCGAA,-0.0349
17,GTGCACAA,-0.028
18,ATTGTCTG,0.197
19,AGTACCGC,-0.0677
20,ATGGTCGG,0.0396
21,CTGCACTA,0.109
22,AGGCATAA,-0.126

row,Sequence,PBM E-score
1,CAATATAG,0.0222
2,CTTGTTCA,0.0665
3,ATAACGAA,0.166
4,CCGTACGG,-0.144
5,AAAGTATA,0.101
6,ACAGTGGG,-0.249
7,CAGACCAA,0.0961
8,ACCTCCGC,-0.054
9,CAAGGTTA,-0.0555
10,AATAATTG,-0.0857
11,CAAGCACA,-0.117
12,AGCGACCG,0.185
13,AACGGCGG,0.0499
14,CAACAGGG,-0.0372
15,GAATTAGC,0.00904
16,AGAAGTAC,-0.149
17,AAAGTAAT,0.156
18,GAGATCAC,-0.108
19,TGCGCAAA,0.179
20,AACACACA,0.094

# Individual results from the results shown:
# Value for AAAGTAAT under PBM E-score: 0.156
# Value for AGCGACCG under PBM E-score: 0.185
# Value for AACGGCGG under PBM E-score: 0.0499
# Value for TGCGCAAA under PBM E-score: 0.179
# Value for CAAGGTTA under PBM E-score: -0.0555
# Value for AAAGTATA under PBM E-score: 0.101

# Reference: the supplement of paper PMC3334620
